In all, about 33,000 sequences were measured (“E-score (-0.5 to 0.5)”: median about -0.015, highest 2% from about 0.3 on). The list shows a part of the results.
Each sequence was assayed against T1, Abf1 (UniProt P14164) (assay: PBM E-score (8-mer binding enrichment) (E-score (-0.5 to 0.5)); higher = stronger / more preferred TF binding). Conditions: protein concentration: 200 nM; construct: GST-full length.
T1 sequence: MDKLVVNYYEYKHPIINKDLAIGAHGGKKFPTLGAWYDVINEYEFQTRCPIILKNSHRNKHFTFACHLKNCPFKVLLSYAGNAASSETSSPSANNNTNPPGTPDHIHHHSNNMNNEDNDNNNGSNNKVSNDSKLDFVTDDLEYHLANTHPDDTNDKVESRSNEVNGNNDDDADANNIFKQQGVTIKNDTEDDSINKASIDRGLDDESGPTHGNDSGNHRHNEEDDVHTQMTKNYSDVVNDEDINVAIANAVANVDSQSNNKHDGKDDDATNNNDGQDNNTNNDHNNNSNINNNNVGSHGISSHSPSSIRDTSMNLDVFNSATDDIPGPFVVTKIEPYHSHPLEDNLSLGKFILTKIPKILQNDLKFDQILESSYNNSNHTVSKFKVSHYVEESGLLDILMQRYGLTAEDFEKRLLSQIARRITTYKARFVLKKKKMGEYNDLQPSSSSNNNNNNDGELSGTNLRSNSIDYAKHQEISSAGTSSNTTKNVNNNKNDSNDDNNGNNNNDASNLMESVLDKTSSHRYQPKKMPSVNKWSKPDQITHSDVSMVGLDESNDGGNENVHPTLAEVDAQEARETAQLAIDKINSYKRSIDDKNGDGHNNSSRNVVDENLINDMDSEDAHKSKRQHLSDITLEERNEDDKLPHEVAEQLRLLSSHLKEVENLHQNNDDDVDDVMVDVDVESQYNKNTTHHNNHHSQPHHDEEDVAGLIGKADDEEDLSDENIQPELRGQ
Procedure, shortened: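 Universal all-10-mer Agilent arrays, fresh or stripped once, were converted to double-stranded form by primer extension. GST-tagged yeast transcription factors from PURExpress in vitro transcription/translation, full-length or DNA-binding domain only, were applied at about 100-200 nM and detected with fluorescent anti-GST. After masliner normalisation, the Universal PBM Analysis Suite scored each ungapped eight-base word together with its reverse complement by E-score.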

| Sequence | PBM E-score |
| --- | --- |
| AGTATGAC | 0.186 |
| CACCCCAG | -0.214 |
| CCGTCAAC | 0.154 |
| AATCCACA | 0.061 |
| AGGTTGGG | -0.142 |
| GAGTGGAC | -0.0943 |
| GCGATGAC | 0.21 |
| AAAATGTG | 0.059 |
| CCGTGATA | 0.283 |
| AAGCTAGA | -0.0775 |
| GGAAGATA | 0.00856 |
| CGCACCTC | -0.0211 |
| AAACCAGG | -0.122 |
| ACCCTCAC | -0.0629 |
| GATTTCCA | -0.147 |
| ATAGCTGA | -0.118 |
| CATGTTAC | 0.146 |
| GTAGCAAA | 0.259 |
| CAGTTGCA | 0.0689 |
| ATCGGCAT | 0.0011 |
| CACTCTTC | -0.0643 |
| CAGCCCCG | -0.218 |
| CCATAGCC | -0.212 |
| CCGGCCGA | -0.103 |
| TAGCGTCA | -0.0771 |

| Sequence | PBM E-score |
| --- | --- |
| CACGCAGG | 0.00487 |
| CGACAGCC | -0.218 |
| AAGACATC | -0.0907 |
| GTTAATGA | 0.179 |
| CCGTCTTA | 0.156 |
| GACTTGAC | -0.131 |
| AATGAAGC | 0.102 |
| CCCTGTCC | -0.278 |
| CGCCATTA | -0.131 |
| CTGCAAAC | -0.00591 |
| CAGCAAGA | 0.0125 |
| AATCGCTG | 0.0947 |
| CGAATGTA | -0.0202 |
| GCGGCAAA | 0.0189 |
| AATCCCCC | -0.241 |
| ATGTAATC | 0.079 |
| TAGGAAAA | 0.0282 |
| CTCCTAAA | -0.019 |
| CAATATTA | 0.271 |
| ACCGCTTA | -0.0364 |
| AAGCTCGG | -0.176 |
| AGAGATTG | 0.0704 |
| AGAGCTGA | -0.212 |
| AGGCGGAG | 0.039 |
| GCGCAGCC | -0.25 |

| Sequence | PBM E-score |
| --- | --- |
| AGTCGGCA | -0.111 |
| ATTGTTCC | 0.138 |
| AACAAGCG | 0.137 |
| TACCGAAA | -0.0387 |
| TACACAGA | -0.104 |
| CCTTACAC | -0.0587 |
| AAGAAGCT | 0.144 |
| ATGCTTAG | 0.166 |
| GCGTTGCC | -0.111 |
| CTTAGCGA | 0.0369 |
| CAATGTCG | 0.239 |
| AATGAGTC | -0.0602 |
| AGCGCCTG | -0.279 |
| GACCATTA | 0.169 |
| ACTTACAC | -0.0255 |
| CATAGGGG | -0.215 |
| GCCGACCA | -0.136 |
| GGACGCCA | -0.173 |
| ACAAATGA | -0.0478 |
| AGACTACT | -0.073 |
| ATCCTAAC | 0.117 |
| CGAGCCGC | 0.052 |
| AGGTAAGG | -0.181 |
| GGAGCTAA | -0.00847 |
| AACATGGT | -0.0248 |

| Sequence | PBM E-score |
| --- | --- |
| TGAGCTAA | -0.0888 |
| AGAGACAA | 0.0374 |
| GATAGGCA | -0.0766 |
| CAAACTCC | -0.0841 |
| AGGATTAA | -0.129 |
| ATGGTCAG | 0.0274 |
| GAACTGGA | 0.0236 |
| TATGAAAA | 0.189 |
| CGCGTGAA | 0.126 |
| AAACCCCC | -0.295 |
| AGACTTTC | -0.0575 |
| CTATCTCA | 0.147 |
| ACATAATC | 0.205 |
| CAAGCTTG | -0.279 |
| ATGCCCTG | -0.068 |
| AGAGGAAT | -0.243 |
| GATGCGTA | 0.0677 |
| CAGTTCTC | -0.0877 |
| ACCTTCTG | -0.0995 |
| AGAGTATA | 0.13 |
| GAGTTCCC | -0.169 |
| ATGAGCCG | 0.0652 |
| AATACGGG | 0.202 |
| CGCCCGTC | 0.102 |
| ACAGCGCC | -0.0983 |

| Sequence | PBM E-score |
| --- | --- |
| AAGACCTA | -0.0124 |
| ACAGGTCA | -0.0348 |
| CTCGGGTA | -0.171 |
| GTAAGGTA | 0.092 |
| GCGCCGCC | -0.0591 |
| ATTCTACG | 0.22 |
| GTGTACTA | 0.165 |
| GTCGGAAA | 0.146 |
| GCTGTCGA | -0.252 |
| CACTTACA | 0.0868 |
| CCCTATCC | -0.23 |
| AAAGAAAT | 0.153 |
| GGGGCTCA | -0.262 |
| AAAAAGCG | -0.125 |
| ACCGACAA | 0.115 |
| CGGGACCA | -0.317 |
| AATTTCAT | 0.134 |
| CATTTGAG | 0.0534 |
| CACTGCTG | -0.189 |
| ATTCCCCG | -0.132 |
| AGTAGATC | 0.0402 |
| CTGAGTGA | 0.124 |
| AAGTCCCA | -0.207 |
| CAACAGTA | 0.0414 |
| AATATTCA | -0.0685 |

Given as tab-separated lines: part of the list above.
Sequence	PBM E-score
CTCGGGTA	-0.171
GTAAGGTA	0.092
GCGCCGCC	-0.0591
ATTCTACG	0.22

Exported with bars between the fields: part of the list above.
Sequence | PBM E-score
GCGTTGCC | -0.111
GACCATTA | 0.169
AATACGGG | 0.202

The list continues:

| Sequence | PBM E-score |
| --- | --- |
| GTTTTCGA | 0.193 |
| AAAGTTCC | -0.091 |
| CATTGGTC | -0.0867 |
| CACAAATC | 0.0151 |
| AACGAAAG | 0.0958 |
| GGGGTGGA | -0.3 |
| AGTTTATG | -0.0326 |
| TCATGAAA | 0.00026 |
| GAGCCGGC | -0.186 |
| CGTGAGCC | 0.116 |
| CAGTTCGG | 0.0374 |
| ATGTGTCG | 0.0704 |
| CACCTCTC | -0.196 |
| CTAAGATA | 0.0158 |
| ATCAATTA | 0.167 |
| ACTTTCCG | 0.0539 |
| AGCAATAC | 0.0761 |
| TGTGTGAA | -0.234 |
| AGGTGGCG | -0.18 |
| ACCTTGGG | -0.0211 |
| AATGTAGT | 0.0994 |
| ACTTGAGA | 0.00102 |
| TCTACAAA | 0.0249 |
| AACATGTA | 0.0593 |
| AATCTTAT | 0.0466 |

| Sequence | PBM E-score |
| --- | --- |
| ATTAAACC | 0.115 |
| ATTCTTGG | -0.0422 |
| GGACTTGA | 0.0954 |
| CGGACGAA | 0.35 |
| ACGGGCCC | -0.0767 |
| GGCCCACC | -0.235 |
| AGACCCCT | -0.345 |
| ATCAATGA | 0.215 |
| GAGGGGAA | -0.129 |
| CGATTCTC | -0.026 |
| ACGTACTA | 0.188 |
| GCGCTCCA | -0.174 |
| CCTACTCC | -0.157 |
| GACCCGCA | -0.0925 |
| CTAGTAAC | 0.102 |
| GACAATAA | 0.133 |
| CGACACTC | 0.0104 |
| ATCCTCCG | 0.0496 |
| ATCGTCGC | 0.362 |
| CAGCGCGG | -0.0817 |
| GAAGGTCA | 0.114 |
| CCGTTCAC | 0.166 |

Laid out differently: results already given
GACCCGCA
  PBM E-score = -0.0925
CTAGTAAC
  PBM E-score = 0.102
GACAATAA
  PBM E-score = 0.133
